# In PubChem BioAssay AID1671190 (National Center for Advancing Translational Sciences (NCATS), 2021):
# Sequences of proteins named here, by UniProt entry; tags and fusion partners are left off.
# UniProt P18054, whole entry, looked up: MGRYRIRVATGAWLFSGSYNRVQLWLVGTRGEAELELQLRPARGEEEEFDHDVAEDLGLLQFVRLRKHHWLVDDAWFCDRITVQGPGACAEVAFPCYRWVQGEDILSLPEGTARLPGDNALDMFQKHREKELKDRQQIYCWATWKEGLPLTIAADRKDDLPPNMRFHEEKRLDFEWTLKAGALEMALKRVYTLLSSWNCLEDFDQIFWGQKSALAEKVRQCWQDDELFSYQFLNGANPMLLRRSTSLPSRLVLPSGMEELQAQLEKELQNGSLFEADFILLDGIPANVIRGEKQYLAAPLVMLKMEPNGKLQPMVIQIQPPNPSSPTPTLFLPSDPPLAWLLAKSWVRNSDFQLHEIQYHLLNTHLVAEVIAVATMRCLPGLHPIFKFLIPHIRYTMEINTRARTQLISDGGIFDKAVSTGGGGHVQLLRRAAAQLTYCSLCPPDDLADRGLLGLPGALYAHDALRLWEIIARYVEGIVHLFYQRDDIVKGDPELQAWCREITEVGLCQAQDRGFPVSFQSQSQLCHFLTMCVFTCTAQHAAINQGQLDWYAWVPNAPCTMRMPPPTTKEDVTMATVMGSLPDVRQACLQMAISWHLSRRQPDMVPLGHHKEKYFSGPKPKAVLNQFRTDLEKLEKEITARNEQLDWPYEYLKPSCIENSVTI
# Values joined by “and” are separate entries in the source; they are usually repeats but may differ in a detail not shown here. Equal entries are not always repeated. The whole screen tested about 580,000 compounds, of which about 6,100 (1.1%) were called active. This list was built around the results that the source calls inconclusive (neither active nor inactive); the mix of calls is not that of the screen. Calls come from the whole dose curve; as a rule, active = well fitted inhibition curve with a large enough effect; inconclusive = small, poorly fitted or top-dose-only effect, or another doubt; inactive = no such curve, though single readings can be large or run the other way. Potencies of inconclusive entries are doubtful fits and often do not repeat. Some structures have more than one record in an assay (separate samples or runs), and their calls can disagree.
# Target: Polyunsaturated fatty acid lipoxygenase ALOX12 (Homo sapiens) (UniProt P18054)
# Assay: Primary qHTS assay for inhibitors of human arachidonate 12S-lipoxygenase (ALOX12): Round 2
# Details: purified 12hLO, xylenol orange hydroperoxide absorbance; activity change, negative = inhibition: at 108 µM (top of the series) unless noted
# Procedure, shortened: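 Purified human 12hLO (150 nM final) in 25 mM Hepes, 0.01% Triton X-100, pH 7.0 was preincubated 15 min at room temperature with compound. Then 40 uM arachidonic acid was added, 30 min. Hydroperoxide was read by Fe-XO absorbance ratio 573/405 nm.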
# % is set by controls: 0 for no effect and ±100 for the full control effect; potency is the fitted concentration of half-maximal effect.
SMILES,Potency,"activity change, negative = inhibition"
O=C(Nc1ccccc1C(F)(F)F)N1CCCC(O)C1 (stereo not drawn),"inconclusive: 28.2 µM [inhibitor, partial curve, poor fit]",
CS(=O)(=O)c1cccc(OC(=O)/C=C/c2cccc(OCc3ccccc3)c2)c1,,inactive: -12.9%
COc1ccc(NC(=O)N2CC(=O)N3[C@H](CO)[C@@H](c4ccc(Br)cc4)[C@@H]3C2)cc1,"inconclusive: 100 µM [inhibitor, single point]",
O=C(c1ccc(Cl)cc1Cl)N1CCN(c2ccccn2)CC1,,inactive: -11.9%
COC(=O)c1ccc(CNC(=O)c2cccc(OC)c2)cc1,"inconclusive: 112 µM [inhibitor, partial curve, poor fit]",
COC(=O)c1cc2oc(C)cc2n1Cc1cc(C)ccc1C,"inconclusive: 141 µM [inhibitor, single point]",
Cc1cccc(NC(=O)CC2Nc3cccc4cccc(c34)NC2=O)c1 (stereo not drawn),"inconclusive: 25.1 µM [inhibitor, partial curve, poor fit]",
Cc1cc(-c2ccc(C(C)C)c(S(=O)(=O)N3CCOc4ccccc43)c2)on1,,inactive: -7.75%
CCc1ccc2nc(C)cc(C(=O)N3CCN(c4ccccc4)C(=O)C3)c2c1,,inactive: 6.19%
N#CC1=C(N)SC(N)=C(C#N)C1c1ccc([N+](=O)[O-])cc1,"inconclusive: 44.7 µM [inhibitor, partial curve, poor fit]",
CC(=O)Nc1ccc(NC(=O)CSCc2cnn(-c3ccccc3)c2-n2cccc2)cc1,"inconclusive: 89.1 µM [inhibitor, single point]",
Cc1ccc(CNc2oc(-c3ccc(S(=O)(=O)N(C)C)cc3)nc2C#N)cc1,"inconclusive: 56.2 µM [inhibitor, partial curve, poor fit]",
CCCC1=NN(c2ccc([N+](=O)[O-])cc2)C(=O)/C1=C/N(C)C,"inconclusive: 35.5 µM [inhibitor, partial curve, poor fit]",
OCC1OC(n2cnc3c(NC4CCCCC4)ncnc32)C(O)C1O (stereo not drawn),,inactive: -15%
Cc1ccc(-c2nc(SC(C)C(=O)N3CCOCC3)n[nH]2)cc1 (stereo not drawn),"inconclusive: 8.91 µM [inhibitor, single point]",
C/C(=N\Nc1nc(C)cc(C)n1)c1ccc(N2CCOCC2)cc1,,inactive: -1.69%
CCCCNC(=O)c1onc(CSc2ccccc2CC)c1C(=O)O,"inconclusive: 44.7 µM [inhibitor, partial curve, poor fit]",
COC(=O)[C@H]1CN(C(=O)c2cccnc2)CCN1C(=O)CSC,"inconclusive: 63.1 µM [inhibitor, full curve, poor fit]",
Cc1ccc(-c2csc(NC(=O)Cc3ccc(F)cc3)n2)o1,"inconclusive: 44.7 µM [inhibitor, partial curve, poor fit]",
Cc1cccc(CC(=O)N2CCC(n3cc(-c4nc(-c5ccccc5)no4)nn3)CC2)c1,,inactive: 9.73%
Cc1ccc2c(CC(=O)Nc3cccc(C(F)(F)F)c3)coc2c1,"inconclusive: 100 µM [inhibitor, single point]",
Cc1cccc(NC(=O)CSc2nc(-c3cccc(C)c3)nc3c2Cc2c(CO)cnc(C)c2O3)c1,,inactive: -9.69%
CCOc1ccc(S(=O)(=O)Nc2cccc(-c3ccc(N4CCCC4)nn3)c2)cc1,,inconclusive: -33% [inhibitor]

SMILES,Potency,"activity change, negative = inhibition"
CC1(C)Cc2c(c(N3CCOCC3)nc3sc(C(=O)Nc4ccc(Cl)cc4)c(N)c23)CO1,active: 2.82 µM,
CCCCn1nc(C(=O)Nc2nc(C(C)=O)cs2)c2ccccc2c1=O,,inactive: 13.1%
O=C(Oc1ccc2c(c1)O/C(=C\C=C\c1ccccc1)C2=O)c1cccs1,,inactive: -22.7%
O/N=C/c1cn(-c2ccccc2)nc1-c1cccnc1,,inactive: -14.6%
CCC1=NOC(Cn2c(=O)n(CCc3ccccn3)c3ncc(C(=O)O)cc32)C1 (stereo not drawn),"inconclusive: 12.6 µM [inhibitor, full curve, poor fit]",
CCOC(=O)c1ccc(N/C=C/C(=O)c2ccccc2)cc1,,inactive: -3.21%
O=C(Nc1ccc(Cl)c(C(=O)N2CCOCC2)c1)c1ccccc1,"inconclusive: 35.5 µM [inhibitor, partial curve, poor fit]",
CCOC(=O)COc1ccc(S(=O)(=O)NCCC2=CCCCC2)cc1,"inconclusive: 17.8 µM [inhibitor, full curve, poor fit]",
COc1ccc(CC2(C)OC(c3ccc([N+](=O)[O-])cc3)=NN2C(C)=O)cc1 (stereo not drawn),,inactive: 55.6%
O=C(NC(NC(=S)Nc1cc(Cl)ccc1Cl)C(Cl)(Cl)Cl)c1ccco1 (stereo not drawn),"inconclusive: 14.1 µM [inhibitor, full curve]",
CCOc1ccc(NC(=O)NC2(C(F)(F)F)Oc3ccccc3O2)cc1,"inconclusive: 31.6 µM [inhibitor, partial curve, poor fit]",
CCC1CCCCN1Cc1c(O)ccc2c(=O)c(Oc3ccccc3Cl)c(C(F)(F)F)oc12 (stereo not drawn),,inconclusive: -38.6% [inhibitor]
CC(C)c1ccc(/C=N/NC(=O)C2CC2c2ccccc2)cc1 (stereo not drawn),"inconclusive: 112 µM [inhibitor, single point]",
CCOC(=O)CNC(=O)C(=O)c1c(O)[nH]c2ccccc12,"inconclusive: 8.91 µM [inhibitor, full curve, poor fit]",
COc1ccc(Nc2nc(-c3ccc4c(c3)NC(=O)CO4)cs2)cc1,"inconclusive: 28.2 µM [inhibitor, partial curve, poor fit]",
Cn1nc(C(=O)N2CCC(c3ccccc3)C2)c2c1-c1ccsc1CC2 (stereo not drawn),"inconclusive: 100 µM [inhibitor, partial curve, poor fit]",
Cc1nc2ccccc2nc1SCC(=O)Nc1ccccc1OC(C)C,,inactive: 0.228%
O=C(Nc1nc2ccc(Cl)cc2s1)C1CC1,"inconclusive: 28.2 µM [inhibitor, partial curve, poor fit]",
CC1CCN(c2nc3c(c(=O)n(Cc4ccccc4F)c(=O)n3C)n2C)CC1,,inactive: 5.53%
CCN1CCC(N(Cc2ccc3c(c2)OCO3)C(=O)Nc2ccc(OC)cc2OC)CC1,"inconclusive: 44.7 µM [inhibitor, single point]",
S=c1ccc2ccccc2[nH]1,"inconclusive: 44.7 µM [inhibitor, partial curve, poor fit]",
CCC(C)Cc1c(C)sc2nc(CNc3ccc(NC(C)=O)c(Cl)c3)[nH]c(=O)c12 (stereo not drawn),"inconclusive: 6.31 µM [inhibitor, full curve, poor fit]",
COc1cc(/C=N/NC(=O)NC23CC4CC(CC(C4)C2)C3)ccc1O,"inconclusive: 126 µM [inhibitor, single point]",

# 3 entries from above, as tab-separated lines:
SMILES	Potency	activity change, negative = inhibition
CCC1CCCCN1Cc1c(O)ccc2c(=O)c(Oc3ccccc3Cl)c(C(F)(F)F)oc12 (stereo not drawn)		inconclusive: -38.6% [inhibitor]
S=c1ccc2ccccc2[nH]1	inconclusive: 44.7 µM [inhibitor, partial curve, poor fit]	
CCC(C)Cc1c(C)sc2nc(CNc3ccc(NC(C)=O)c(Cl)c3)[nH]c(=O)c12 (stereo not drawn)	inconclusive: 6.31 µM [inhibitor, full curve, poor fit]	

# The listing continues.

SMILES,Potency,"activity change, negative = inhibition"
Fc1ccc(N/N=C/c2cccc(Cl)c2)c(F)c1,"inconclusive: 12.6 µM [inhibitor, partial curve, poor fit]",
C[C@@H](NC(=O)[C@@H]1CCCN1C(=O)[C@@H]1CCCN1)c1ccccc1,"inconclusive: 39.8 µM [inhibitor, partial curve, poor fit]",
CN1c2ccccc2N(C)C1(C)c1cccc2ccccc12,active: 35.5 µM,
CCCN1CN(c2ccccc2)C(=S)N(c2ccccc2)C1,"inconclusive: 79.4 µM [inhibitor, single point]",
CCCn1nnnc1NCc1ccc(N2CCCC2)cc1,"inconclusive: 3.98 µM [inhibitor, full curve, poor fit]",
O=C(c1cccc(F)c1)N1CCN(C2CCCCC2)CC1,"inconclusive: 1 µM [inhibitor, full curve, poor fit]",
CC1CC(=O)Nc2ccccc2N1C(=O)Cn1cnc2c(Cl)cc(Cl)cc2c1=O (stereo not drawn),,inactive: -27.3%
O=C1c2cccc3c([N+](=O)[O-])ccc(c23)C(=O)N1c1ccccn1,,inactive: 95.1% [at 57.4 µM]
COc1ccc(-c2ccc(C(=O)Nc3ccc(Cl)cc3)c3occc23)c(C)c1,,inactive: -12.1%
N#CC(=C1C=CC(=NO)C(Cl)=C1)c1ccccc1,"inconclusive: 89.1 µM [inhibitor, single point]",
COc1ccc(NC2=NS(=O)(=O)C(c3ccccc3)=C2C)cc1Cl,,inactive: 19.9%
CN1CCCCCC1=Nc1ccc([N+](=O)[O-])cc1,,inactive: 125%
COc1cc(-c2nc3c[n+](CC(=O)c4ccccc4)ccc3n2C)cc(OC)c1OC,"inconclusive: 15.8 µM [inhibitor, partial curve, poor fit]",
Cc1cc(C)nc(N/N=C/C2=C(O)CC(c3ccc(F)cc3)CC2=O)n1 (stereo not drawn),,inactive: -21.8%
Cc1cccc(NC(=O)CN(CCc2ccccc2)S(C)(=O)=O)c1,"inconclusive: 44.7 µM [inhibitor, partial curve, poor fit]",
CC(C)CCNc1nc(-c2ccc(S(C)(=O)=O)cc2)cs1,"inconclusive: 56.2 µM [inhibitor, partial curve, poor fit]",
O=C(Cc1cccs1)NC(C(=O)Nc1ccc2c(c1)OCO2)c1ccccc1 (stereo not drawn),"inconclusive: 126 µM [inhibitor, single point]",
Cc1cccc(NS(=O)(=O)c2ccc3c(c2)OCCO3)c1,"inconclusive: 44.7 µM [inhibitor, partial curve, poor fit]",
CCN1CCN(Cc2ccc(NC(=O)c3ccc(C)c(NC(=O)C(=O)c4c[nH]c5ccccc45)c3)cc2C(F)(F)F)CC1,"inactive and inconclusive: 35.5 µM [inhibitor, partial curve]",
COc1ccc(CC(=O)Nc2ccc(/C(C)=N/NC(=O)c3ccc(OC)cc3OC)cc2)cc1,,inactive: -6.76%
NC(=O)c1cc(Cc2ccccc2)sc1NC(=O)c1cccnc1,"inconclusive: 44.7 µM [inhibitor, partial curve, poor fit]",
CCC(=O)c1ccc(OCc2cccc(C#N)c2)cc1,,inactive: 12.1%
